Test results as given in PubChem BioAssay AID1347076 (National Center for Advancing Translational Sciences (NCATS), 2019).
The whole screen tested about 400,000 compounds, of which about 13,000 (3.2%) were called active. This list was built around the results that the source calls inconclusive (neither active nor inactive); the mix of calls is not that of the screen. Calls follow the shape of the dose curve; as a rule, active = well fitted cell-killing curve with a large enough effect; inconclusive = small, poorly fitted or top-dose-only effect, or effect the other way; inactive = flat fitted curve, though single readings scatter. A potency beside an inconclusive call is a rough fit, not a confirmed value.

Test: qHTS assay for MDR1-selective chemotherapeutics: Primary screen using the drug-selected MDR subline cells KB-V1; also: nearly all actives have a fitted effect of over 60% in size
Settings: KB-V1 MDR cells viability, CellTiter-Glo, 72 h; activity change, negative = cytotoxicity: at 46.1 µM (top of the series)
Summary of the method: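 Cytotoxicity via CellTiter-Glo luminescence after 72 h compound exposure at 37 degrees C. Cells: drug-selected KB-V1 line, DMEM phenol-red free plus 10% FBS. Compounds tested at multiple concentrations; normalized data fitted to concentration-effect curves.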
% is scaled to controls: 0 for no effect and ±100 for the full control effect; potency is read from the fitted curve at half-maximal effect.

Compound	activity change, negative = cytotoxicity	Potency
COc1ccc(C(=O)N2CCC(C(=O)Nc3ccccc3Cl)CC2)cc1	inactive: 0%	–
C[C@H](N)c1nnc(SCC(N)=O)o1	inconclusive: -30.4% [cytotoxic]	–
COc1ccc(S(N)(=O)=O)cc1C(=O)NCCCN1CCN(c2cccc(Cl)c2)CC1	inactive: 4.15%	–
Cc1sc2c(c1C)CN(Cc1ccncc1)CN2C(=O)c1ccco1	–	inconclusive: 29.1 µM [cytotoxic, single point]
O=C(Nc1cccc(-n2cnnn2)c1)c1cccs1	–	inconclusive: 4.11 µM [rising, partial curve, poor fit]
Nc1cc(-c2nc3ncccc3o2)ccc1Cl	–	inconclusive: 25.9 µM [cytotoxic, partial curve, poor fit]
Cc1ccccc1C1c2[nH]c3ccccc3c2CCN1Cc1cccn1-c1ncccn1 (configuration not stated)	–	inconclusive: 20.6 µM [cytotoxic, partial curve, poor fit]
COc1ccc(C(=O)/C=C/c2cccs2)c(OC(=O)N2CCOCC2)c1	–	inconclusive: 29.1 µM [cytotoxic, single point]
CC[C@@]1(C(=O)OC)N[C@H](CN(C)C(=O)c2ccc(C(C)(C)C)cc2)[C@@H]2C(=O)N(Cc3ccccc3)C(=O)[C@@H]21	–	inconclusive: 25.9 µM [cytotoxic, single point]
Cc1cc(Cl)cc(Cl)c1OCCOc1cccc2cccnc12	–	inconclusive: 9.2 µM [cytotoxic, partial curve, poor fit]
O=Cc1ccc(-c2cccs2)s1	inactive: -11.5%	–
COCc1c(C(=O)OCC(=O)N2c3ccccc3NC(=O)C2(C)C)oc2ccccc12	–	active: 16.4 µM
CCOc1ccc(NC(=O)CCN2C(=O)CSc3ccccc32)cc1	–	inconclusive: 29.1 µM [cytotoxic, single point]
CC(=O)Oc1ccccc1Cn1c(C)c(C(=O)NCc2cccc([N+](=O)[O-])c2)sc1=O	–	active: 18.4 µM
CS(=O)(=O)c1ccc(C(=O)OCC(=O)Nc2ccc(OC(F)(F)F)cc2)cc1[N+](=O)[O-]	inactive: -15%	–
O=C(Cc1cccs1)N1CCCC(c2nc(-c3ccc(S(=O)(=O)N4CCCC4)cc3)no2)C1 (configuration not stated)	–	active: 20.6 µM
CCCn1ccc2c(OCC(=O)Nc3ccc(F)cc3F)cccc2c1=O	inactive: 15.9%	–
CC(=O)c1ccc(N2CCN(c3ccc(C(F)(F)F)cn3)CC2)cc1	–	active: 7.31 µM
COCCCC1CCN(Cc2nc(-c3ccccc3)no2)CC1	–	inconclusive: 23.1 µM [cytotoxic, single point]
CC1CCN(Cc2c(C(=O)N/N=C/c3cc(Cl)ccc3O)nnn2-c2nonc2N)CC1	–	inconclusive: 4.61 µM [cytotoxic, partial curve, poor fit]
COc1ccc(NC(=O)CSc2nnc(-c3ccccc3C)n2C)cc1	–	active: 14.6 µM
CCN(C(=O)CN1CCN(c2ccccc2OC)CC1)c1c(N)n(Cc2ccccc2)c(=O)[nH]c1=O	–	inconclusive: 9.2 µM [rising, partial curve, poor fit]
O=C(c1ccncc1)N(Cc1ccccc1)Cc1nc2ccccc2c(=O)[nH]1	inactive: -17.5%	–
O=C(NCC1CCCO1)c1c(O)nc2sccn2c1=O (configuration not stated)	inactive: 8.49%	–

Compound	activity change, negative = cytotoxicity	Potency
O=C(CN(CCc1ccccc1)S(=O)(=O)c1ccc(Cl)cc1)N/N=C/c1ccc2c(c1)OCO2	–	active: 9.2 µM
COc1ccc(S(=O)(=O)N2CCN(CC(O)CN3CCOCC3)CC2)cc1 (configuration not stated)	–	inconclusive: 29.1 µM [rising, single point]
NC(=O)c1ccc(S(=O)(=O)N2CCSCC2)cc1	inactive: 27.9%	–
COC(=O)C1CCN(C(=O)COC(=O)C2CCN(S(=O)(=O)c3c(Cl)cccc3Cl)CC2)CC1	–	inconclusive: 18.4 µM [rising, single point]
O=C(CCl)N=c1sccn1Cc1ccccc1Cl	–	inconclusive: 32.6 µM [cytotoxic, partial curve, poor fit]
C=CC[n+]1c(-c2ccc(OC)c(OC)c2)csc1NNC(=O)Nc1ccccc1	–	active: 18.4 µM
O=C(NNC(=O)C(O)c1ccccc1)NC1CCCCC1 (configuration not stated)	–	inconclusive: 13 µM [rising, partial curve, poor fit]
COc1cccc(CN2CCC(C(=O)N3CCN(Cc4ccc5c(c4)OCO5)CC3)CC2)c1	inactive: 0%	–
c1cnc(N2CCN(c3cnccn3)CC2)nc1	inactive: -2.86%	–
CCC(C)(C)n1nnnc1C(c1ccccc1F)N1CCN(C(=O)c2ccco2)CC1 (configuration not stated)	–	inconclusive: 8.2 µM [cytotoxic, partial curve, poor fit]
O=C(N/N=C/c1ccc(O)cc1)Nc1cccc2nsnc12	inactive: 10.6%	–
CC(=O)C1=NOC2C(=O)N(c3ccccc3)C(=O)C12 (configuration not stated)	inactive: -3.68%	–
COC(=O)c1c(C)[nH]c(C)c1-c1cccc([N+](=O)[O-])c1	–	inconclusive: 18.4 µM [cytotoxic, single point]
CCN(CC(=O)Nc1cc(Cl)ccc1C)C(=O)CCS(=O)(=O)c1ccc(Cl)cc1	–	inconclusive: 7.31 µM [cytotoxic, partial curve, poor fit]
COc1cccc(Cn2c(C(C)n3c(C)nc4ccccc43)nc3ccccc32)c1 (configuration not stated)	–	inconclusive: 4.11 µM [cytotoxic, partial curve]
Cc1nc2ccccc2n1Cc1ccccc1	–	inconclusive: 10.3 µM [cytotoxic, partial curve]
Cc1occc1C(=O)N1CCN(c2ccc(Cl)c(Cl)c2)CC1	–	active: 23.1 µM
CC(C)(C)NC(=O)CN(Cc1cccs1)C(=O)CN1C(=O)C(=O)c2ccccc21	inactive: -1%	–
COc1ccc(-c2nc3ccc(Cl)cn3c2Cc2cccc(F)c2)cc1OC	inactive: 7.64%	–
CCN(CC)c1ccc(NC(=O)c2ccc(=O)[nH]c2)cc1S(=O)(=O)Nc1ccccc1OC	inactive: 0%	–
COC(=O)[C@@]1(Cc2ccc(OC)cc2)[C@H]2c3cc(C(=O)N4CCCC4)n(CCO)c3C[C@H]2CN1C(=O)c1ccccc1	inactive: -11.8%	–
CCOc1ccc(-c2nc(CSCC(=O)NC3CCN(Cc4ccccc4)CC3)c(C)o2)cc1	–	inconclusive: 4.61 µM [cytotoxic, full curve]
CC(C)c1ccc(C2C3=C(COC3=O)Nc3cc4c(cc32)OCO4)cc1 (configuration not stated)	–	active: 1.16 µM

Three structures out of the list, ordered by molecular weight, descending.
Compound	activity change, negative = cytotoxicity	Potency
CCOc1ccc(-c2nc(CSCC(=O)NC3CCN(Cc4ccccc4)CC3)c(C)o2)cc1	–	inconclusive: 4.61 µM [cytotoxic, full curve]
C=CC[n+]1c(-c2ccc(OC)c(OC)c2)csc1NNC(=O)Nc1ccccc1	–	active: 18.4 µM
CC(=O)C1=NOC2C(=O)N(c3ccccc3)C(=O)C12 (configuration not stated)	inactive: -3.68%	–
